# Results as given in the supplement of paper PMC12823440, “Inhibitors supercharge kinase turnover through native proteolytic circuits” (Nature, 2025).
# By UniProt entry, the sequences of proteins in these tests, tags left out. Where a name states a change or a piece, a line headed by the entry shows the natural chain unless it says otherwise.
# UniProt P07949, whole entry, looked up: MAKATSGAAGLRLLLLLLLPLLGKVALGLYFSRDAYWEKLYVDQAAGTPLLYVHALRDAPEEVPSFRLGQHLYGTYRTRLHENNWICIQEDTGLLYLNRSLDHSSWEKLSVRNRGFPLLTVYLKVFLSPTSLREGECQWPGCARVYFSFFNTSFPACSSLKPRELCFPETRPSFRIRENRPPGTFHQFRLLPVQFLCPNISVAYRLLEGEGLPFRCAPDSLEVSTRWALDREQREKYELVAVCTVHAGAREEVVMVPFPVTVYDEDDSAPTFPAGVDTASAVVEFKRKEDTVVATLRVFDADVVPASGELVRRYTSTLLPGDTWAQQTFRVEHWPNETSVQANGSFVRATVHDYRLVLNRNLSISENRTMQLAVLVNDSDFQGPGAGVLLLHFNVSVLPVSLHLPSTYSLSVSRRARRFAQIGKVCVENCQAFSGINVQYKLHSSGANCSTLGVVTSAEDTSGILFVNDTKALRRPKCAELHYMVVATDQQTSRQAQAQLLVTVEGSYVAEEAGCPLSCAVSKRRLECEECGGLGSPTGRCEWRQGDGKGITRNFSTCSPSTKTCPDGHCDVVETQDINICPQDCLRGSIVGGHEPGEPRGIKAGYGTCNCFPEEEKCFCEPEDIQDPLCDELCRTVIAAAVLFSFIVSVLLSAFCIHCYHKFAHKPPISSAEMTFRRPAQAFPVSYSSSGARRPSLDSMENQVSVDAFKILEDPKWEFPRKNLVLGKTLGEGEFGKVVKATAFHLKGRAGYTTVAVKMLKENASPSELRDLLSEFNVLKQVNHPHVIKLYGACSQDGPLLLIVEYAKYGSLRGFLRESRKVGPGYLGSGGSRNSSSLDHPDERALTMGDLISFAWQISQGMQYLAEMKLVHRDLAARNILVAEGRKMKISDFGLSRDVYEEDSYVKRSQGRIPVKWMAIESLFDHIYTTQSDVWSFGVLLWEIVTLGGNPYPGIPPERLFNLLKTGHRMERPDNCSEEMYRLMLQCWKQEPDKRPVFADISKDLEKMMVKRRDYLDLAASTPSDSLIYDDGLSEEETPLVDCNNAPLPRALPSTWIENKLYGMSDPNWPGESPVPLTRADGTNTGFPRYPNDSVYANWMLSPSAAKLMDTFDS
# UniProt Q13546: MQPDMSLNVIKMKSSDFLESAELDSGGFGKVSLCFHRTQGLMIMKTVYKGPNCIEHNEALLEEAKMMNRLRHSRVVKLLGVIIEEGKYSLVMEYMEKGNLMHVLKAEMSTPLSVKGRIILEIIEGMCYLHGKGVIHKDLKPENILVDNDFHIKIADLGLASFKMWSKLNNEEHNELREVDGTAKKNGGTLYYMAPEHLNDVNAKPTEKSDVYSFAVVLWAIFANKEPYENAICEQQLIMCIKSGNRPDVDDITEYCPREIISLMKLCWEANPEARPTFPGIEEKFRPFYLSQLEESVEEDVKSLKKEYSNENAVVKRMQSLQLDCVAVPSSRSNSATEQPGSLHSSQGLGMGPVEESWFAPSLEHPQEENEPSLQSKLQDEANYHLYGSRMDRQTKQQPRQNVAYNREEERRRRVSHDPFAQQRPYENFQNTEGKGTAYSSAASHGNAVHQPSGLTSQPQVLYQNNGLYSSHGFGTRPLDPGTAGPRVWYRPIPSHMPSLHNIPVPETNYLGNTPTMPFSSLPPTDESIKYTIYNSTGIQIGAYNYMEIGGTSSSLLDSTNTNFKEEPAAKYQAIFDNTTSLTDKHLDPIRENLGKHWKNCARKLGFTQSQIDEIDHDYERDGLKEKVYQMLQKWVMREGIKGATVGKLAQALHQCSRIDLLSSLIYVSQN
# UniProt Q15418, whole entry: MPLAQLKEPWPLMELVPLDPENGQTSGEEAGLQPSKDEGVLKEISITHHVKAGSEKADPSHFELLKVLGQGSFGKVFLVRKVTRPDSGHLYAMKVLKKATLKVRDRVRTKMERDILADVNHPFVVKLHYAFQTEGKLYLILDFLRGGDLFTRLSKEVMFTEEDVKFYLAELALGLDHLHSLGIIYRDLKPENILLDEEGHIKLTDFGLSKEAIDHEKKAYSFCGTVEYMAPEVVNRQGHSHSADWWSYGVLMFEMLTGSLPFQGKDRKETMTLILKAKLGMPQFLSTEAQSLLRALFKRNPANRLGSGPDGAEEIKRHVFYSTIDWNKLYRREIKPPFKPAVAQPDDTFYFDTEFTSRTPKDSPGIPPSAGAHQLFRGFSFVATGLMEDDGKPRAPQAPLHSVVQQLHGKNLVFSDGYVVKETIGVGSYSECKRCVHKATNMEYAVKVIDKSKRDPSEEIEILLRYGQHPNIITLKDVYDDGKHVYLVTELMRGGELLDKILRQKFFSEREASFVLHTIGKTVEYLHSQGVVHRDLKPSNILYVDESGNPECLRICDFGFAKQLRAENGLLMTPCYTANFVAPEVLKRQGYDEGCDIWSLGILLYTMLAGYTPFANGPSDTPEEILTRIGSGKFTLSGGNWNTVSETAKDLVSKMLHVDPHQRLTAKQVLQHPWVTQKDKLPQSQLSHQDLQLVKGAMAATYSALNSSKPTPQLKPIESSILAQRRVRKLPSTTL
# UniProt P42680: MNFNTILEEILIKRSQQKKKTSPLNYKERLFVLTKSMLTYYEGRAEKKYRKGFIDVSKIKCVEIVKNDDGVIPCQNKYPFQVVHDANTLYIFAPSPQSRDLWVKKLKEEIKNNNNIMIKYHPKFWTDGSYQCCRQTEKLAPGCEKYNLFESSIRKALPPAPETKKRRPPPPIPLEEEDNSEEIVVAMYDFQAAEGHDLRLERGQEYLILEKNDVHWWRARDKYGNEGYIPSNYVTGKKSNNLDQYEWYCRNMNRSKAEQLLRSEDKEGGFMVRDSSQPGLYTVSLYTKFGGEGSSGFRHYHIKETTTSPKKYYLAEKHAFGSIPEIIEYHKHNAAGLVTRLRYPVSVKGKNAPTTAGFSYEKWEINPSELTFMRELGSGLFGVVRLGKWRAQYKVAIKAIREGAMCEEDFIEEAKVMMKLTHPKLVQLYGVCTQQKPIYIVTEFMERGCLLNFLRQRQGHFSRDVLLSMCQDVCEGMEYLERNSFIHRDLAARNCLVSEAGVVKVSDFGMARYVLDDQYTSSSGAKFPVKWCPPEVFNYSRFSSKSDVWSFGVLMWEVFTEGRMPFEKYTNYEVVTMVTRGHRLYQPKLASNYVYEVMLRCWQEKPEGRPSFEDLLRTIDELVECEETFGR
# UniProt P29597: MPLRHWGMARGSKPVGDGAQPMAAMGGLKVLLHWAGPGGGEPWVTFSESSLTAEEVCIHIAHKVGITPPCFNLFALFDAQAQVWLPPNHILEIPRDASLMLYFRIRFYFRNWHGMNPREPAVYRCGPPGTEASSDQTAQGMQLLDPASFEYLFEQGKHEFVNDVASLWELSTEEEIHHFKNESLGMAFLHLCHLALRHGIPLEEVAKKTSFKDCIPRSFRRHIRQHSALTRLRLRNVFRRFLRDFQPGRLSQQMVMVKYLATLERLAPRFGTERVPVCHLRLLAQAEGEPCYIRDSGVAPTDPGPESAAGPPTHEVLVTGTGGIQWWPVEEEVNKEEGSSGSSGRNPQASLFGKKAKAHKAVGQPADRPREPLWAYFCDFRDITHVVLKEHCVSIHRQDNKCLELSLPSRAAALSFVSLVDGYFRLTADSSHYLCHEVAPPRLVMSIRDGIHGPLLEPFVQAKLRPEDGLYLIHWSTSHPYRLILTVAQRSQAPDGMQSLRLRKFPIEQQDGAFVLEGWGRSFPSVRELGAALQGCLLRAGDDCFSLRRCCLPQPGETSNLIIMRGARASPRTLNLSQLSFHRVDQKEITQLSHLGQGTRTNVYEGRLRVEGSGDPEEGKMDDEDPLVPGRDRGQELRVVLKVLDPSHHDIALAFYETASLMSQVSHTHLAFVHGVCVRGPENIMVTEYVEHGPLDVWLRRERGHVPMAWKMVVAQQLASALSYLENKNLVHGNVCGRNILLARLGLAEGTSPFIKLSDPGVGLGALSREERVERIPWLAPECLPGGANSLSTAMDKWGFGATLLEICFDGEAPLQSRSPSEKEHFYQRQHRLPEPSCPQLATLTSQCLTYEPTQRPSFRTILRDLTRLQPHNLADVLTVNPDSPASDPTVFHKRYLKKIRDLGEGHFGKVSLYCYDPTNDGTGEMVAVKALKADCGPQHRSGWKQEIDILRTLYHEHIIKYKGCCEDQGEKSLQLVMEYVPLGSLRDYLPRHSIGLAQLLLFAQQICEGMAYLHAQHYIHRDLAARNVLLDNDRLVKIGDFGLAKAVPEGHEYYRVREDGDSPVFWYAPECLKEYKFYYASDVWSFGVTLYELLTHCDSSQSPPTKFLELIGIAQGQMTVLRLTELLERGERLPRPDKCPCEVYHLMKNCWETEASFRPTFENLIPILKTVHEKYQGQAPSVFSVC
# UniProt Q6PHR2: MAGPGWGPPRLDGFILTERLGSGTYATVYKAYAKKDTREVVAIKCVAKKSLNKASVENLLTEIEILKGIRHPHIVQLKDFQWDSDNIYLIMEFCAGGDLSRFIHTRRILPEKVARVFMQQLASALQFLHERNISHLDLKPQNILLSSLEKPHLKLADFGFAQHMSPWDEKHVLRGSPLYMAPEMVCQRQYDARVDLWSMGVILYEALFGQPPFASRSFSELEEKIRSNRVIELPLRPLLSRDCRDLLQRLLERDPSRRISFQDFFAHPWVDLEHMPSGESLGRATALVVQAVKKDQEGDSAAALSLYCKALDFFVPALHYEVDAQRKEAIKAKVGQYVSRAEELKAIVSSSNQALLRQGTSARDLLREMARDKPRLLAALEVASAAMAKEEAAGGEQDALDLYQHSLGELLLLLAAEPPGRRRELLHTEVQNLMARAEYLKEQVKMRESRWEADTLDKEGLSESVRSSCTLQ
# UniProt P07947, whole entry, looked up: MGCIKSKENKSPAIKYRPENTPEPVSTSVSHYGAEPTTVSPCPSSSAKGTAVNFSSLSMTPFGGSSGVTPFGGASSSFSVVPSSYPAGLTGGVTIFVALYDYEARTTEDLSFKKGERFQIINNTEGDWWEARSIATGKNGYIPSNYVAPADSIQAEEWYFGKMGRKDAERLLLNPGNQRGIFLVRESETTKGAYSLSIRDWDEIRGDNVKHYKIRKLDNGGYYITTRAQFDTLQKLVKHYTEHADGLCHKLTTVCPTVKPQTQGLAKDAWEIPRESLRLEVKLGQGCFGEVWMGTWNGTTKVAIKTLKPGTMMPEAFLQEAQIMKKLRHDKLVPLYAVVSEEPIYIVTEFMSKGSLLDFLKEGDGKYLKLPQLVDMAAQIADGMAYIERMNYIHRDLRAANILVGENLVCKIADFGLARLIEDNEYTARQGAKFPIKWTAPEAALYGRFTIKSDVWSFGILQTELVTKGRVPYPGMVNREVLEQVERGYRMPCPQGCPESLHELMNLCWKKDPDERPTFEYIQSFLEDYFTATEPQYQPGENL
# UniProt P43403: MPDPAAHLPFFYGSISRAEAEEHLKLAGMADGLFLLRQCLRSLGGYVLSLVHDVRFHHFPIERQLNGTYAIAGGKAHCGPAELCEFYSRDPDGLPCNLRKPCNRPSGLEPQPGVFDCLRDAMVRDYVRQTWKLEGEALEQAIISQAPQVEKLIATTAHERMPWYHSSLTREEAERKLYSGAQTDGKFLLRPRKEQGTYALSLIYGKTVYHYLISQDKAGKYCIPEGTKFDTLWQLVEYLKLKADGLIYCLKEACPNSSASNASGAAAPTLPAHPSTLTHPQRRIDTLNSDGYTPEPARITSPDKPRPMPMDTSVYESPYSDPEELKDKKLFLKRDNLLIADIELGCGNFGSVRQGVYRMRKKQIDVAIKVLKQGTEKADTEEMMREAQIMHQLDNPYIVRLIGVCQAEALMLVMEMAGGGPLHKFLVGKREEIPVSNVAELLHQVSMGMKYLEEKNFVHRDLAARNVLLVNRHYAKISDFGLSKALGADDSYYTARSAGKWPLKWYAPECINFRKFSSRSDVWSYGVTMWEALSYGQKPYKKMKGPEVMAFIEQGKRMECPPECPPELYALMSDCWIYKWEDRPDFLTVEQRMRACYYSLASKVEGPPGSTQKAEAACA
# UniProt P31749: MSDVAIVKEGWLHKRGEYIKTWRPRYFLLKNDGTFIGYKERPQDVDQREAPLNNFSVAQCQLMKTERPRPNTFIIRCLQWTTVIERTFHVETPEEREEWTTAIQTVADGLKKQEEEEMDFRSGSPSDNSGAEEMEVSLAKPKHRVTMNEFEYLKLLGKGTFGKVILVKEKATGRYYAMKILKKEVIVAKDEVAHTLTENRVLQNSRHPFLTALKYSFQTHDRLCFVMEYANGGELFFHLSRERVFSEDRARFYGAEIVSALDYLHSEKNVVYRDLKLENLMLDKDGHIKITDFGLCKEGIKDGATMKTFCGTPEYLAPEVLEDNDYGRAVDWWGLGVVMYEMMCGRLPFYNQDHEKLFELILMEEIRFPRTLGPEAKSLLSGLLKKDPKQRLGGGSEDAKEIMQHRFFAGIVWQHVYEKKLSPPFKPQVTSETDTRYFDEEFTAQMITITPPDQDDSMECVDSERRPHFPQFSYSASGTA
# Some of the results follow. Hit calls seldom repeat between salt and free forms of one compound.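 Kinases, fused to nanoluciferase, were expressed in K562 cells; luminescence was measured every 4 h from 2 to 18 h as percent of control (DMSO = 100%, positive control = 0%). A time point is decreased if signal falls significantly (2 sigma). Hits were called by the authors by a rule that is not shown; the count of time points alone does not decide it.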
# How the values were obtained:
# Conditions in all cases: K562; 2-18 h
# [1] = target: RET (UniProt P07949); assay: kinase-Nluc reporter destabilization hit call (1 = scored as downregulated) (binary); higher = compound decreases kinase abundance
# [2] = target: RET_M918T (clone: RET_mut) (UniProt P07949); assay: as above
# [3] = target: RIOK1 (UniProt Q9BRS2); assay: as above
# [4] = target: RIPK1 (UniProt Q13546); assay: as above
# [5] = target: RIPK2 (UniProt O43353); assay: as above
# [6] = target: ROR2 (UniProt Q01974); assay: as above
# [7] = target: RPS6KA1 (UniProt Q15418); assay: as above
# [8] = target: SPHK1 (UniProt Q9NYA1); assay: as above
# [9] = target: SRC (UniProt P12931); assay: as above
# [10] = target: STK24 (UniProt Q9Y6E0); assay: as above
# [11] = target: STK38 (UniProt Q15208); assay: as above
# [12] = target: SYK (UniProt P43405); assay: as above
# [13] = target: TEC (UniProt P42680); assay: as above
# [14] = target: TYK2 (UniProt P29597); assay: as above
# [15] = target: ULK3 (UniProt Q6PHR2); assay: as above
# [16] = target: YES1 (UniProt P07947); assay: as above
# [17] = target: ZAK (UniProt Q9NYL2); assay: as above
# [18] = target: ZAP70 (UniProt P43403); assay: as above
# [19] = target: ABL1 (UniProt P00519); assay: number of time points (of 5) at which kinase-Nluc abundance scored as decreased, DMSO-normalised (count); higher = more persistent destabilization
# [20] = target: AKT1 (UniProt P31749); assay: as above
Compound,kinase-Nluc reporter destabilization hit call [1],kinase-Nluc reporter destabilization hit call [2],kinase-Nluc reporter destabilization hit call [3],kinase-Nluc reporter destabilization hit call [4],kinase-Nluc reporter destabilization hit call [5],kinase-Nluc reporter destabilization hit call [6],kinase-Nluc reporter destabilization hit call [7],kinase-Nluc reporter destabilization hit call [8],kinase-Nluc reporter destabilization hit call [9],kinase-Nluc reporter destabilization hit call [10],kinase-Nluc reporter destabilization hit call [11],kinase-Nluc reporter destabilization hit call [12],kinase-Nluc reporter destabilization hit call [13],kinase-Nluc reporter destabilization hit call [14],kinase-Nluc reporter destabilization hit call [15],kinase-Nluc reporter destabilization hit call [16],kinase-Nluc reporter destabilization hit call [17],kinase-Nluc reporter destabilization hit call [18],number of time points [19],number of time points [20]
CC1CN(CC2CCN(Cc3ccccc3)CC2)C(=O)N(c2cccc(C(=N)N)c2)C1 (stereo not given) (10 µM),inactive: 0,inactive: 0,inactive: 0,inactive: 0,inactive: 0,inactive: 0,inactive: 0,inactive: 0,inactive: 0,inactive: 0,inactive: 0,inactive: 0,inactive: 0,inactive: 0,inactive: 0,inactive: 0,inactive: 0,inactive: 0,0,0
COc1cc(-c2cc(-c3ccc(N4CCNCC4)cc3)cnc2C)cc(OC)c1OC (10 µM),inactive: 0,inactive: 0,inactive: 0,inactive: 0,inactive: 0,inactive: 0,inactive: 0,inactive: 0,inactive: 0,inactive: 0,inactive: 0,inactive: 0,inactive: 0,inactive: 0,inactive: 0,inactive: 0,inactive: 0,inactive: 0,0,0
c1nc2c(NC3CCCCC3)nc(Nc3ccc(N4CCOCC4)cc3)nc2[nH]1 [Reversine] (10 µM),inactive: 0,inactive: 0,inactive: 0,inactive: 0,inactive: 0,inactive: 0,inactive: 0,inactive: 0,inactive: 0,inactive: 0,inactive: 0,inactive: 0,inactive: 0,inactive: 0,inactive: 0,inactive: 0,inactive: 0,inactive: 0,1,0
Cc1nn(C)cc1-c1nc2c(N3CCN(Cc4ccc(Cl)cc4)CC3)c(Cl)cnc2[nH]1 (10 µM),inactive: 0,inactive: 0,inactive: 0,inactive: 0,inactive: 0,inactive: 0,inactive: 0,inactive: 0,inactive: 0,inactive: 0,inactive: 0,inactive: 0,inactive: 0,inactive: 0,inactive: 0,inactive: 0,inactive: 0,inactive: 0,0,0
CCCn1/c(=N/C(=O)c2cccc(C(N)=O)c2)[nH]c2ccccc21 [Takinib] (10 µM),inactive: 0,inactive: 0,inactive: 0,inactive: 0,inactive: 0,inactive: 0,inactive: 0,inactive: 0,inactive: 0,inactive: 0,inactive: 0,inactive: 0,inactive: 0,inactive: 0,inactive: 0,inactive: 0,inactive: 0,inactive: 0,0,0
COC(=O)Nc1ccc(-c2nc(N3CCOCC3)c3cnn(C4CCN(Cc5cccnc5)CC4)c3n2)cc1 (10 µM),inactive: 0,inactive: 0,inactive: 0,inactive: 0,inactive: 0,inactive: 0,inactive: 0,inactive: 0,inactive: 0,inactive: 0,inactive: 0,inactive: 0,inactive: 0,inactive: 0,inactive: 0,inactive: 0,inactive: 0,inactive: 0,0,0
COC(=O)/C=C/c1ccccc1 [Methyl cinnamate] (10 µM),inactive: 0,inactive: 0,inactive: 0,inactive: 0,inactive: 0,inactive: 0,inactive: 0,inactive: 0,inactive: 0,inactive: 0,inactive: 0,inactive: 0,inactive: 0,inactive: 0,inactive: 0,inactive: 0,inactive: 0,inactive: 0,0,0
COc1c(O)cc2oc(-c3ccc(O)cc3)cc(=O)c2c1O [Hispidulin] (10 µM),inactive: 0,inactive: 0,inactive: 0,inactive: 0,inactive: 0,inactive: 0,inactive: 0,inactive: 0,inactive: 0,inactive: 0,inactive: 0,inactive: 0,inactive: 0,inactive: 0,inactive: 0,inactive: 0,inactive: 0,inactive: 0,0,0
C#Cc1cccc(Nc2ncnc3cc(OC)c(NC(=O)N4C[C@H]5CCN(C)[C@H]5C4)cc23)c1 [Theliatinib] (10 µM),inactive: 0,inactive: 0,inactive: 0,inactive: 0,inactive: 0,inactive: 0,inactive: 0,inactive: 0,inactive: 0,inactive: 0,inactive: 0,inactive: 0,inactive: 0,inactive: 0,inactive: 0,inactive: 0,inactive: 0,inactive: 0,0,0

# Complete entries from above. Order of values: kinase-Nluc reporter destabilization hit call [1] | kinase-Nluc reporter destabilization hit call [2] | kinase-Nluc reporter destabilization hit call [3] | kinase-Nluc reporter destabilization hit call [4] | kinase-Nluc reporter destabilization hit call [5] | kinase-Nluc reporter destabilization hit call [6] | kinase-Nluc reporter destabilization hit call [7] | kinase-Nluc reporter destabilization hit call [8] | kinase-Nluc reporter destabilization hit call [9] | kinase-Nluc reporter destabilization hit call [10] | kinase-Nluc reporter destabilization hit call [11] | kinase-Nluc reporter destabilization hit call [12] | kinase-Nluc reporter destabilization hit call [13] | kinase-Nluc reporter destabilization hit call [14] | kinase-Nluc reporter destabilization hit call [15] | kinase-Nluc reporter destabilization hit call [16] | kinase-Nluc reporter destabilization hit call [17] | kinase-Nluc reporter destabilization hit call [18] | number of time points [19] | number of time points [20]
# COC(=O)/C=C/c1ccccc1 [Methyl cinnamate] (10 µM) is listed as inactive: 0 | inactive: 0 | inactive: 0 | inactive: 0 | inactive: 0 | inactive: 0 | inactive: 0 | inactive: 0 | inactive: 0 | inactive: 0 | inactive: 0 | inactive: 0 | inactive: 0 | inactive: 0 | inactive: 0 | inactive: 0 | inactive: 0 | inactive: 0 | 0 | 0
# CCCn1/c(=N/C(=O)c2cccc(C(N)=O)c2)[nH]c2ccccc21 [Takinib] (10 µM) is listed as inactive: 0 | inactive: 0 | inactive: 0 | inactive: 0 | inactive: 0 | inactive: 0 | inactive: 0 | inactive: 0 | inactive: 0 | inactive: 0 | inactive: 0 | inactive: 0 | inactive: 0 | inactive: 0 | inactive: 0 | inactive: 0 | inactive: 0 | inactive: 0 | 0 | 0
